PubChem BioAssay AID504791, Drosophila RNAi Screening Center | 2011
The screen tested about 23,000 reagents; shown is an unselected part of those with a known target gene and a result. Over the whole deposit, 199 (0.86%) were called active. 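Plate-scaled ratios behind the calls are not deposited; printed light signals are raw; many rows marked increased or decreased are still called inactive.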 A number with no mark means an inactive call. The record does not give: the direction of the score.

- Test: 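Genes of the fly required for silencing by miRNA, siRNA or endo-siRNA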 (primary screen)
- System: Drosophila S2-derived reporter cells
- Reagent: long dsRNA against Drosophila genes, about 150-250 ng dsRNA per well (siRNA assay); about 80-120 ng (miRNA assay)
- Duration: about 5 days (siRNA assay); about 4 days (miRNA assay)
- Conditions: copper sulfate induction of reporters: 25 µM (siRNA assay); 200 mM stated (miRNA assay), 1-2 days before reading
- Measured: 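Per-well ratio of Renilla over firefly light, expressed relative to that plate's average ratio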
- Call rule: 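a well was a first-pass pick when its plate-scaled ratio rose above 1.5 (siRNA assay) or 1.6 (miRNA assay), or dropped below 0.6; a gene counted only if two separate dsRNAs agreed on retest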

gene,DRSC id,stable siRNA reporter change,miRNA reporter change,"stable assay Renilla, run 1 (luminescence)","stable assay firefly, run 1 (luminescence)"
CG9550,DRSC03262,,,7556,6.12e5
Obp49a (Odorant-binding protein 49a),DRSC22562,,,5288,4.28e5
icln,DRSC07630,,,5762,2.61e5
Hsp67Ba (Heat shock gene 67Ba),DRSC11191,,,5211,3.21e5
CG34196,DRSC05704,,,5760,4.87e5
CG12432 (retired record),DRSC19455,,,4931,5.11e5
CG33468,DRSC22940,,,4047,3.13e5
CG30345,DRSC05144,,,4755,3.89e5
l(3)72Dn (lethal (3) 72Dn),DRSC10468,,,8547,3.90e5
dlp (dally-like),DRSC10281,,,6947,2.01e5
dlp (dally-like),DRSC10472,,,6772,3.18e5
Hsl (Hormone-sensitive lipase),DRSC06028,,,12064,3.57e5
CG3226,DRSC18296,reporter ratio lowered past the hit cutoff,,5467,5.21e5
CG4781,DRSC04488,,,6732,4.42e5
CG13800 (retired record),DRSC08334,,,7318,4.33e5
CG30039,DRSC21794,,,9526,4.21e5
l(2)gl (lethal (2) giant larvae),DRSC00825,,,3580,4.13e5
CG18636,DRSC02685,,,3868,2.66e5
nsr (novel spermatogenesis regulator),DRSC04427,,,8962,6.89e5
nsr (novel spermatogenesis regulator),DRSC22806,,,3484,2.65e5
deltaCOP (Coat Protein (coatomer) delta),DRSC18760,,,6306,2.77e5
CG31213,DRSC14312,,,7898,4.37e5
CG31213,DRSC15647,,,8304,4.19e5
CG32708,DRSC18411,,,5012,4.12e5
zetaCOP (Coat Protein (coatomer) zeta),DRSC11412,,,5955,2.17e5
nullo,DRSC18807,,,5879,3.23e5
Hasp (Hig-anchoring scaffold protein),DRSC02022,,,18566,1.34e6
"alpha-PheRS (Phenylalanyl-tRNA synthetase, alpha-subunit)",DRSC18224,,,8604,4.89e5
bcd (bicoid),DRSC12624,,,7986,3.49e5
CG4281,DRSC18521,,,9009,6.06e5
Cln7,DRSC11005,,,6930,3.68e5
anchor,DRSC10861,,,9561,4.27e5
CG11334,DRSC14066,,,6526,3.21e5
CG11334,DRSC14302,,,5739,4.46e5

Part of the list above in another layout:
{"gene": "CG34196", "DRSC id": "DRSC05704", "stable assay Renilla, run 1 (luminescence)": 5760, "stable assay firefly, run 1 (luminescence)": 4.87e5}
{"gene": "CG12432 (retired record)", "DRSC id": "DRSC19455", "stable assay Renilla, run 1 (luminescence)": 4931, "stable assay firefly, run 1 (luminescence)": 5.11e5}
{"gene": "CG33468", "DRSC id": "DRSC22940", "stable assay Renilla, run 1 (luminescence)": 4047, "stable assay firefly, run 1 (luminescence)": 3.13e5}
{"gene": "CG30345", "DRSC id": "DRSC05144", "stable assay Renilla, run 1 (luminescence)": 4755, "stable assay firefly, run 1 (luminescence)": 3.89e5}
{"gene": "l(3)72Dn (lethal (3) 72Dn)", "DRSC id": "DRSC10468", "stable assay Renilla, run 1 (luminescence)": 8547, "stable assay firefly, run 1 (luminescence)": 3.90e5}
{"gene": "dlp (dally-like)", "DRSC id": "DRSC10281", "stable assay Renilla, run 1 (luminescence)": 6947, "stable assay firefly, run 1 (luminescence)": 2.01e5}

Continued.
gene,DRSC id,stable siRNA reporter change,miRNA reporter change,"stable assay Renilla, run 1 (luminescence)","stable assay firefly, run 1 (luminescence)"
CG8204,DRSC07106,,,7196,3.26e5
CG4080,DRSC10398,,,7254,3.82e5
PGRP-SD (Peptidoglycan recognition protein SD),DRSC10856,,,6162,2.88e5
Der-1 (Derlin-1),DRSC00301,,,15192,7.14e5
CG9394,DRSC04550,,,7222,5.44e5
not (non-stop),DRSC11378,,,7147,3.40e5
phr (photorepair),DRSC07662,,,11165,4.53e5
CG17163,DRSC20901,,,6280,5.08e5
DUBAI (Deubiquitinating apoptotic inhibitor),DRSC07281,,,7411,3.49e5
CG16888,DRSC02541,,,7099,4.10e5
ave (aveugle),DRSC05502,,,6562,4.58e5
ave (aveugle),DRSC28562,,reporter ratio lowered past the hit cutoff,,
Flad2 (Flavin adenine dinucleotide synthetase 2),DRSC02531,,,6932,4.00e5
CG32846,DRSC08012,,,4820,4.11e5
RAF2 (RING-associated factor 2),DRSC10443,,,7526,2.45e5
RAF2 (RING-associated factor 2),DRSC10454,,,7922,4.07e5
muskelin,DRSC07273,,,5898,3.58e5
CG11379,DRSC18629,,,7023,4.22e5
CG14247,DRSC14742,,,5102,2.62e5
Gpxl (Glutathione peroxidase-like),DRSC06538,,,5835,3.38e5
CG5039,DRSC15703,,,6632,2.93e5
CBP (sarcoplasmic calcium-binding protein),DRSC17746,,,8871,5.60e5
CG18586,DRSC10325,,,6558,4.16e5
COX2 (retired record),DRSC21276,,,6427,3.50e5
CG7920,DRSC16346,,,7484,4.88e5
CG7920,DRSC21594,,,9483,6.20e5
CG42458,DRSC10335,reporter ratio raised past the hit cutoff,,6919,2.10e5
CG42458,DRSC23129,,,4744,2.75e5
CG42458,DRSC23261,,,4803,4.60e5
CG5819,DRSC04520,,,8522,5.58e5
Best2 (Bestrophin 2),DRSC09712,,,5738,3.44e5
CG13659,DRSC14660,,,7521,3.37e5
PIG-T (Phosphatidylinositol glycan anchor biosynthesis class T),DRSC17774,,,5676,3.36e5
CG3437,DRSC10366,,,5739,3.15e5
CG4597,DRSC10432,,,6474,4.36e5
CG5509,DRSC15822,,,7422,4.50e5
CG4887,DRSC00670,,,7302,3.91e5
CG4887,DRSC21563,,,8979,5.31e5
CG8237,DRSC07119,,,7710,5.31e5
Or85a (Odorant receptor 85a),DRSC16764,,,7196,5.03e5
Ada2b (transcriptional Adaptor 2b),DRSC16531,,,6746,5.03e5
peb (pebbled),DRSC18817,,,5163,1.98e5
peb (pebbled),DRSC23057,,,3995,2.50e5
Zasp67 (Z band alternatively spliced PDZ-motif protein 67),DRSC10169,,,6555,4.55e5
Bap55 (Brahma associated protein 55kD),DRSC07000,reporter ratio lowered past the hit cutoff,,8850,6.51e5
CG5746,DRSC15868,,,7638,3.75e5
CG3982,DRSC10394,reporter ratio raised past the hit cutoff,,4748,1.89e5
CG3982,DRSC23139,,,5172,3.34e5
hd (humpty dumpty),DRSC12316,,,5543,3.23e5
